No constants are given. Whether binding was seen depends on the method and setting. In cells and extracts the contact can be indirect. Some results given as binding are weak or reduced against the parent protein; the word gives no strength.
Target: Translation machinery associated 7 homolog (TMA7) (human (endogenous in TU212)) (UniProt Q9Y2S6)
Test: co-IP; TU212 cell lysate; TMA7 antibody on protein A+G magnetic beads, incubated with the lysate at 4 C overnight; washed, boiled with SDS, Western blot

The chains behind the UniProt entries cited, without tags or fusion partners.
UniProt Q9Y2S6: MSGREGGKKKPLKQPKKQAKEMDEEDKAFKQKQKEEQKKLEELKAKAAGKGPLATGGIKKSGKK

B1: Ubiquitin like modifier activating enzyme 2 (UBA2) (protein, UniProt Q9UBT2 1-640)
chain: MALSRGLPRELAEAVAGGRVLVVGAGGIGCELLKNLVLTGFSHIDLIDLDTIDVSNLNRQFLFQKKHVGRSKAQVAKESVLQFYPKANIVAYHDSIMNPDYNVEFFRQFILVMNALDNRAARNHVNRMCLAADVPLIESGTAGYLGQVTTIKKGVTECYECHPKPTQRTFPGCTIRNTPSEPIHCIVWAKYLFNQLFGEEDADQEVSPDRADPEAAWEPTEAEARARASNEDGDIKRISTKEWAKSTGYDPVKLFTKLFKDDIRYLLTMDKLWRKRKPPVPLDWAEVQSQGEETNASDQQNEPQLGLKDQQVLDVKSYARLFSKSIETLRVHLAEKGDGAELIWDKDDPSAMDFVTSAANLRMHIFSMNMKSRFDIKSMAGNIIPAIATTNAVIAGLIVLEGLKILSGKIDQCRTIFLNKQPNPRKKLLVPCALDPPNPNCYVCASKPEVTVRLNVHKVTVLTLQDKIVKEKFAMVAPDVQIEDGKGTILISSEEGETEANNHKKLSEFGIRNGSRLQADDFLQDYTLLINILHSEDLGKDVEFEVVGDAPEKVGPKQAEDAAKSITNGSDDGAQPSTSTAQEQDDVLIVDSDEEDSSNNADVSEEERSRKRKLDEKENLSAKRSRIEQKEELDDVIALD
binding: binds
